Results are given in words; binding and its absence hold for the method and conditions named.
Target: bovine serum albumin (bovine) (UniProt P02769)
Experiment: far-Western, overlay or dot blot; reduced purified prey proteins (from 40 µM stocks, 3 µL) dotted on nitrocellulose; blocked with 5% skim milk in TBST; incubated with 0.2 µM reduced P5 in 20 mM Tris-HCl pH 7.6, 150 mM NaCl, 0.05% Tween 20 at 4 °C for 3 h; bound P5 detected with anti-P5 antiserum; both purified

Sequences of proteins named here, by UniProt entry; tags and fusion partners are left off. Residues count along the entry.
UniProt P02769, residues 25-607: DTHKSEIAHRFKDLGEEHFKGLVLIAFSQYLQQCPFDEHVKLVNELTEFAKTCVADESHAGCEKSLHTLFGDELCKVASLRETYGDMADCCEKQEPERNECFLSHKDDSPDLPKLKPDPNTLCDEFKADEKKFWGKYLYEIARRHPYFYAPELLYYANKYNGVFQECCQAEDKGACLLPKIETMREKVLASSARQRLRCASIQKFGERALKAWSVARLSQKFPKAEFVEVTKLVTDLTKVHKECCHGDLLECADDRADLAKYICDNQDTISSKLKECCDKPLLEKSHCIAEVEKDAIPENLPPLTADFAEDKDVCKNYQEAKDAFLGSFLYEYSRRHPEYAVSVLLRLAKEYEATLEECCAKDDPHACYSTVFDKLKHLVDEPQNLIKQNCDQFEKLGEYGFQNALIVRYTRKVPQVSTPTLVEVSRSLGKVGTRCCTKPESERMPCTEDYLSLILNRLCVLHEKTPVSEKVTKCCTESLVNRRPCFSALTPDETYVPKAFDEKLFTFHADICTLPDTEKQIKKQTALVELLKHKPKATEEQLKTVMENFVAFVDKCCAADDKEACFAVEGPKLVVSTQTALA

B1: P5 (reduced form) (enzyme, UniProt Q15084 20-440)
chain: LYSSSDDVIELTPSNFNREVIQSDSLWLVEFYAPWCGHCQRLTPEWKKAATALKDVVKVGAVDADKHHSLGGQYGVQGFPTIKIFGSNKNRPEDYQGGRTGEAIVDAALSALRQLVKDRLGGRSGGYSSGKQGRSDSSSKKDVIELTDDSFDKNVLDSEDVWMVEFYAPWCGHCKNLEPEWAAAASEVKEQTKGKVKLAAVDATVNQVLASRYGIRGFPTIKIFQKGESPVDYDGGRTRSDIVSRALDLFSDNAPPPELLEIINEDIAKRTCEEHQLCVVAVLPHILDTGAAGRNSYLEVLLKLADKYKKKMWGWLWTEAGAQSELETALGIGGFGYPAMAAINARKMKFALLKGSFSEQGINEFLRELSFGRGSTAPVGGGAFPTIVEREPWDGRDGELPVEDDIDLSDVELDDLGKDEL
binding: no binding (tested: 0.2 μM)

From paper PMC8615271
